Reference: the supplement of paper PMC8728848
The list shows a part of the results.

Legend:
Experiment in all cases: glycan array binding signal (z-score within array); higher = stronger binding
Conditions in all cases: glycan notation: IUPAC condensed, linker removed
[1] = target: Neu5Ac(a2-3)Gal(b1-3)[Fuc(a1-4)]GlcNAc
In short: (§1)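 Negative Z-scores can be read as non-binding. The Z-score is calculated within each array and then averaged across arrays of one protein sequence at different concentrations or buffers and across linkers. Arrays, 3228 in all, were curated from the Consortium for Functional Glycomics database and kept only where the protein sequence was available.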

[2] = target: Neu5Ac(a2-3)Gal(b1-3)[Fuc(a1-4)]GlcNAc(b1-3)Gal(b1-3)[Fuc(a1-4)]GlcNAc
In short: as §1

[3] = target: Neu5Ac(a2-3)Gal(b1-3)[Fuc(a1-4)]GlcNAc(b1-3)Gal(b1-4)[Fuc(a1-3)]GlcNAc
In short: as §1

[4] = target: Neu5Ac(a2-3)Gal(b1-3)[GlcNAc(b1-6)]GalNAc
In short: as §1

[5] = target: Neu5Ac(a2-3)Gal(b1-3)[Neu5Ac(a2-6)]GalNAc
In short: as §1

[6] = target: Neu5Ac(a2-3)Gal(b1-3)[Neu5Ac(a2-6)]GlcNAc(b1-3)[Fuc(a1-3)[Gal(b1-4)]GlcNAc(b1-6)]Gal(b1-4)Glc
In short: as §1

[7] = target: Neu5Ac(a2-3)Gal(b1-3)]Neu5Ac(a2-3)Gal(b1-4)]GlcNAc
In short: as §1

Neu5Ac(a2-3)Gal(b1-4)Glc = target: Neu5Ac(a2-3)Gal(b1-4)Glc
In short: as §1

[8] = target: Neu5Ac(a2-3)Gal(b1-4)GlcNAc
In short: as §1

[9] = target: Neu5Ac(a2-3)Gal(b1-4)GlcNAc(b1-2)Man
In short: as §1

[10] = target: Neu5Ac(a2-3)Gal(b1-4)GlcNAc(b1-2)Man(a1-3)[GlcNAc(b1-4)][Neu5Ac(a2-3)Gal(b1-4)GlcNAc(b1-2)Man(a1-6)]Man(b1-4)GlcNAc(b1-4)GlcNAc
In short: as §1

[11] = target: Neu5Ac(a2-3)Gal(b1-4)GlcNAc(b1-2)Man(a1-3)[Neu5Ac(a2-3)Gal(b1-4)GlcNAc(b1-2)Man(a1-6)]Man(b1-4)GlcNAc(b1-4)GlcNAc
In short: as §1

[12] = target: Neu5Ac(a2-3)Gal(b1-4)GlcNAc(b1-2)Man(a1-3)[Neu5Ac(a2-3)Gal(b1-4)GlcNAc(b1-2)Man(a1-6)]Man(b1-4)GlcNAc(b1-4)[Fuc(a1-6)]GlcNAc
In short: as §1

[13] = target: Neu5Ac(a2-3)Gal(b1-4)GlcNAc(b1-2)Man(a1-3)[Neu5Ac(a2-6)Gal(b1-4)GlcNAc(b1-2)Man(a1-6)]Man(b1-4)GlcNAc(b1-4)GlcNAc
In short: as §1

[14] = target: Neu5Ac(a2-3)Gal(b1-4)GlcNAc(b1-2)[Neu5Ac(a2-3)Gal(b1-4)GlcNAc(b1-4)]Man(a1-3)[GlcNAc(b1-4)][Neu5Ac(a2-3)Gal(b1-4)GlcNAc(b1-2)[Neu5Ac(a2-3)Gal(b1-4)GlcNAc(b1-6)]Man(a1-6)]Man(b1-4)GlcNAc(b1-4)GlcNAc
In short: as §1

[15] = target: Neu5Ac(a2-3)Gal(b1-4)GlcNAc(b1-2)[Neu5Ac(a2-3)Gal(b1-4)GlcNAc(b1-4)]Man(a1-3)[GlcNAc(b1-4)][Neu5Ac(a2-3)Gal(b1-4)GlcNAc(b1-4)Man(a1-6)]Man(b1-4)GlcNAc(b1-4)GlcNAc
In short: as §1

[16] = target: Neu5Ac(a2-3)Gal(b1-4)GlcNAc(b1-2)[Neu5Ac(a2-3)Gal(b1-4)GlcNAc(b1-6)]Man(a1-6)[Neu5Ac(a2-3)Gal(b1-4)GlcNAc(b1-2)Man(a1-3)]Man(b1-4)GlcNAc(b1-4)GlcNAc
In short: as §1

[17] = target: Neu5Ac(a2-3)Gal(b1-4)GlcNAc(b1-2)[Neu5Ac(a2-3)Gal(b1-4)GlcNAc(b1-6)]Man(a1-6)[Neu5Ac(a2-3)Gal(b1-4)GlcNAc(b1-2)Man(a1-3)][GlcNAc(b1-4)]Man(b1-4)GlcNAc(b1-4)GlcNAc
In short: as §1

[18] = target: Neu5Ac(a2-3)Gal(b1-4)GlcNAc(b1-3)Gal
In short: as §1

[19] = target: Neu5Ac(a2-3)Gal(b1-4)GlcNAc(b1-3)Gal(b1-3)GlcNAc
In short: as §1

[20] = target: Neu5Ac(a2-3)Gal(b1-4)GlcNAc(b1-3)Gal(b1-4)GlcNAc
In short: as §1

[21] = target: Neu5Ac(a2-3)Gal(b1-4)GlcNAc(b1-3)Gal(b1-4)GlcNAc(b1-2)Man(a1-3)[Neu5Ac(a2-3)Gal(b1-4)GlcNAc(b1-3)Gal(b1-4)GlcNAc(b1-2)Man(a1-6)]Man(b1-4)GlcNAc(b1-4)GlcNAc
In short: as §1

[22] = target: Neu5Ac(a2-3)Gal(b1-4)GlcNAc(b1-3)Gal(b1-4)GlcNAc(b1-3)Gal(b1-4)GlcNAc
In short: as §1

[23] = target: Neu5Ac(a2-3)Gal(b1-4)GlcNAc(b1-3)Gal(b1-4)GlcNAc(b1-3)Gal(b1-4)GlcNAc(b1-2)Man(a1-3)[Neu5Ac(a2-3)Gal(b1-4)GlcNAc(b1-3)Gal(b1-4)GlcNAc(b1-3)Gal(b1-4)GlcNAc(b1-2)Man(a1-6)]GalNAc
In short: as §1

[24] = target: Neu5Ac(a2-3)Gal(b1-4)GlcNAc(b1-3)Gal(b1-4)GlcNAc(b1-3)GalNAc
In short: as §1

[25] = target: Neu5Ac(a2-3)Gal(b1-4)GlcNAc(b1-3)Gal(b1-4)GlcNAc(b1-3)[Neu5Ac(a2-3)Gal(b1-4)GlcNAc(b1-3)Gal(b1-4)GlcNAc(b1-6)]GalNAc
In short: as §1

[26] = target: Neu5Ac(a2-3)Gal(b1-4)GlcNAc(b1-3)Gal(b1-4)GlcNAc(b1-6)[Gal(b1-3)]GalNAc
In short: as §1

[27] = target: Neu5Ac(a2-3)Gal(b1-4)GlcNAc(b1-3)Gal(b1-4)[Fuc(a1-3)]GlcNAc
In short: as §1

[28] = target: Neu5Ac(a2-3)Gal(b1-4)GlcNAc(b1-3)GalNAc
In short: as §1

[29] = target: Neu5Ac(a2-3)Gal(b1-4)GlcNAc(b1-3)[Neu5Ac(a2-3)Gal(b1-4)GlcNAc(b1-6)]GalNAc
In short: as §1

B1: TAL6-6LysM (Trichoderma atroviride) (protein)
chain: AASKLGVPQPAQRDQVNCQLYAVQPNDNCIDISSKNNITYAQLLSWNPSLSSTCSNLASLNSSSICVSNPKGTFSISSNTVGATDIATTTAPVPSPTLDQTTSRCAKYYQVSDGDDCSHLTAQFAITLKDFIFLNSEVWQNCTNLELGYYYCVEPVGYISTYPGYLPTATTKPFNQTSATSLPYDGDPWARFSSNSSVIPIANGTRVDCYSYVYVKNLTENLFADCWNMASMYEITREELVLWNPSLGNDGSSGSNLSGAEASQVASSIAIPTTAPSSITTNLYTYPCTVAANISYCVALVSSTGALPTNTAPPGPHASGEISNCTAWFAPEAYDTCKSILDIFEMSFANFYKMNPSVGPDCSGLAVGTNYCVSTYPNGEDPNDDWDGDDSIPSISPTGIITPTPTQSGMVSNCNKFYDVHSNDGCSAIASSQHVDLSSLYKWNPAIKTDCSGLQASVYVCIGILTTSMSTTSKLPTTTSKPSTTSKPPTGITTPTPTQSGMVKNCNKFYDVHSGDGCSAIASSQKVNLSSFYLWNPAVKTDCSGLQASVFVCIGTLTTSMSTTTSKLPTTTSKPSTTSKPPTGIITPTPTQNGMVKNCNKFYDVHSGDGCSAIASSQKVNLSSFYLWNPAVKTDCSGLQASVFVCVGTATTTTAAGITTPTPTQSGMVSGCNKFYDVHAGDGCSAIASSQKIALSSLYKWNPAVKTDCSGLQASVYICIGVGNAAAARVTGAAASFLEQKLISEEDLNSAVDHHHHHH
With B1 the “glycan array binding signal (z-score)” value [1] was 1.22, the “glycan array binding signal (z-score)” value [2] was -0.756 and the “glycan array binding signal (z-score)” value [3] was 1.02. For the same binder, the “glycan array binding signal (z-score)” value [4] was -1.63, the “glycan array binding signal (z-score)” value [5] was 0.887 and the “glycan array binding signal (z-score)” value [6] was 0.865. For the same binder, the “glycan array binding signal (z-score)” value [7] was -0.807, the “glycan array binding signal (z-score)” value (Neu5Ac(a2-3)Gal(b1-4)Glc) was -0.573 and the “glycan array binding signal (z-score)” value [8] was -0.586. The “glycan array binding signal (z-score)” value [9] was 0.22, the “glycan array binding signal (z-score)” value [10] was 0.194 and the “glycan array binding signal (z-score)” value [11] was -0.417. For the same binder, the “glycan array binding signal (z-score)” value [12] was 0.049, the “glycan array binding signal (z-score)” value [13] was -0.683 and the “glycan array binding signal (z-score)” value [14] was -0.981. The “glycan array binding signal (z-score)” value [15] was -0.721, the “glycan array binding signal (z-score)” value [16] was 0.485 and the “glycan array binding signal (z-score)” value [17] was 0.013. For the same binder, the “glycan array binding signal (z-score)” value [18] was -1.16, the “glycan array binding signal (z-score)” value [19] was -0.147 and the “glycan array binding signal (z-score)” value [20] was -0.54. For the same binder, the “glycan array binding signal (z-score)” value [21] was -0.658, the “glycan array binding signal (z-score)” value [22] was 1.76 and the “glycan array binding signal (z-score)” value [23] was -0.398. The “glycan array binding signal (z-score)” value [24] was 0.926, the “glycan array binding signal (z-score)” value [25] was -0.648 and the “glycan array binding signal (z-score)” value [26] was -0.275. For the same binder, the “glycan array binding signal (z-score)” value [27] was 0.026, the “glycan array binding signal (z-score)” value [28] was -0.543 and the “glycan array binding signal (z-score)” value [29] was -1.25.
